{"source": "PubChem BioAssay AID1259254 (NCATS, 2017)", "assay": "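Genome-wide screen for genes that prevent DNA re-replication in cancer cells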 (primary screen)", "system": "human HCT116 colorectal cancer cells", "reagent": "single siRNA against human genes", "duration": "3 days", "read-out": "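Imaged Hoechst DNA stain sorts each cell into a cycle phase by DNA amount; per plate, G2 fraction set to 0% for non-targeting and 100% for GMNN siRNA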", "reading the numbers": "G2 robust z-score and G2 cells, % of GMNN control: higher = more G2 cells, more excess DNA replication", "call rule": "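An siRNA counts as active if its G2 robust z-score lies at least 5 MADs above the screen median; here such calls match roughly 38% of GMNN control or more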", "note": "This is one part, drawn at random, of about 59,000 reagents. About 1,550 of all reagents (2.6%) count as active. 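G2 share is only a proxy for re-replication; each gene was hit by three separate siRNAs, and active genes were retested.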 A number with no mark means an inactive call. Further read-outs or replicates are left out here. Reagent sequences are not shown. Not stated in the record: the amount of reagent."}
{"target": "PRICKLE4 (prickle planar cell polarity protein 4)", "PubChem SID": "SID160733043", "G2 robust z-score": 1.01, "G2 cells, % of GMNN control": 10.1}
{"target": "PRICKLE4 (prickle planar cell polarity protein 4)", "PubChem SID": "SID160739402", "G2 robust z-score": 0.0709, "G2 cells, % of GMNN control": 3.47}
{"target": "PRICKLE4 (prickle planar cell polarity protein 4)", "PubChem SID": "SID160739403", "G2 robust z-score": 0.702, "G2 cells, % of GMNN control": 7.91}
{"target": "PGD (phosphogluconate dehydrogenase)", "PubChem SID": "SID160714203", "G2 robust z-score": -0.638, "G2 cells, % of GMNN control": -1.52}
{"target": "PGD (phosphogluconate dehydrogenase)", "PubChem SID": "SID160714204", "G2 robust z-score": -1.26, "G2 cells, % of GMNN control": -5.92}
{"target": "PGD (phosphogluconate dehydrogenase)", "PubChem SID": "SID160731410", "G2 robust z-score": 0.115, "G2 cells, % of GMNN control": 3.78}
{"target": "H3C7 (H3 clustered histone 7)", "PubChem SID": "SID160721200", "G2 robust z-score": -0.863, "G2 cells, % of GMNN control": -3.11}
{"target": "H3C7 (H3 clustered histone 7)", "PubChem SID": "SID160724201", "G2 robust z-score": 0.127, "G2 cells, % of GMNN control": 3.86}
{"target": "H3C7 (H3 clustered histone 7)", "PubChem SID": "SID160735154", "G2 robust z-score": 2.32, "G2 cells, % of GMNN control": 19.3}

In a second layout: entries from further up
target | PubChem SID | G2 robust z-score | G2 cells, % of GMNN control
PGD (phosphogluconate dehydrogenase) | SID160714204 | -1.26 | -5.92
PGD (phosphogluconate dehydrogenase) | SID160731410 | 0.115 | 3.78

Next reagents follow.
{"target": "FOXRED1 (FAD dependent oxidoreductase domain containing 1)", "PubChem SID": "SID160743815", "G2 robust z-score": -0.707, "G2 cells, % of GMNN control": -2.01}
{"target": "FOXRED1 (FAD dependent oxidoreductase domain containing 1)", "PubChem SID": "SID160743816", "G2 robust z-score": "6.91 (active)", "G2 cells, % of GMNN control": 51.6}
{"target": "FOXRED1 (FAD dependent oxidoreductase domain containing 1)", "PubChem SID": "SID160743819", "G2 robust z-score": 1.26, "G2 cells, % of GMNN control": 11.9}
{"target": "GPANK1 (G-patch domain and ankyrin repeats 1)", "PubChem SID": "SID160719475", "G2 robust z-score": 0.408, "G2 cells, % of GMNN control": 5.84}
{"target": "GPANK1 (G-patch domain and ankyrin repeats 1)", "PubChem SID": "SID160719477", "G2 robust z-score": -1.02, "G2 cells, % of GMNN control": -4.24}
{"target": "GPANK1 (G-patch domain and ankyrin repeats 1)", "PubChem SID": "SID160719478", "G2 robust z-score": -0.0827, "G2 cells, % of GMNN control": 2.39}
{"target": "OR5P3 (olfactory receptor family 5 subfamily P member 3)", "PubChem SID": "SID160755772", "G2 robust z-score": -0.949, "G2 cells, % of GMNN control": -3.71}
{"target": "OR5P3 (olfactory receptor family 5 subfamily P member 3)", "PubChem SID": "SID160755773", "G2 robust z-score": 3.31, "G2 cells, % of GMNN control": 26.3}
{"target": "OR5P3 (olfactory receptor family 5 subfamily P member 3)", "PubChem SID": "SID160755774", "G2 robust z-score": -1.04, "G2 cells, % of GMNN control": -4.33}
